Experimental data taken from the supplement of paper PMC6411743.
± gives the standard deviation of the averaged measurements. The entries are a selection whose mix differs from that of the whole data set.

Chains of the proteins cited; added tags and fusions are not shown. Lines headed by an entry give the natural chain unless they say otherwise; changes in a name come on top.
UniProt Q9UHQ1: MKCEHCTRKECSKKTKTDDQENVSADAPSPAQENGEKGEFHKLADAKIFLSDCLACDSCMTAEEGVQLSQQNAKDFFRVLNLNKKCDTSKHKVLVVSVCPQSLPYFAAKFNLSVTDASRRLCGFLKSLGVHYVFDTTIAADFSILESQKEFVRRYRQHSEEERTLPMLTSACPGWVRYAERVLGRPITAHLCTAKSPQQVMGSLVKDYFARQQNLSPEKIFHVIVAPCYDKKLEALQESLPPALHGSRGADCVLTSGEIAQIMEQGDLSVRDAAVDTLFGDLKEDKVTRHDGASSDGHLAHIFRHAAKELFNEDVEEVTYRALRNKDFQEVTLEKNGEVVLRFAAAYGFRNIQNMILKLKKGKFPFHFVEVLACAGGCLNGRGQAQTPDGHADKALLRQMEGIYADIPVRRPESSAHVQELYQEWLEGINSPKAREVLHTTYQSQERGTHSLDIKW
UniProt Q9NS73: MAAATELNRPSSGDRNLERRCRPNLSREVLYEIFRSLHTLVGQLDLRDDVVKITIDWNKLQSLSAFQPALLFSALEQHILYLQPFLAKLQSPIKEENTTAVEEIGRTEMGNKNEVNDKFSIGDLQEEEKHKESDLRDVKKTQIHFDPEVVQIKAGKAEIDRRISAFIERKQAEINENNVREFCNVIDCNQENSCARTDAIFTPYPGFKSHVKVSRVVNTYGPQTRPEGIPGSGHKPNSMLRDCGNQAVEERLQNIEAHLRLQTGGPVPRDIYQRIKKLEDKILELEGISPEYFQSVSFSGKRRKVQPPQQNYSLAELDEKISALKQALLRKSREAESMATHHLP
UniProt P07203, whole entry: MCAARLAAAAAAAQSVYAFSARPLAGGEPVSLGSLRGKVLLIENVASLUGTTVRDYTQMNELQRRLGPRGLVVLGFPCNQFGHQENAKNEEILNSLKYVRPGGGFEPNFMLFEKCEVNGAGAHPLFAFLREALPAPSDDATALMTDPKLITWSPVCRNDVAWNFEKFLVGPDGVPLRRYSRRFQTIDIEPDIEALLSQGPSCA
UniProt Q9NQ55: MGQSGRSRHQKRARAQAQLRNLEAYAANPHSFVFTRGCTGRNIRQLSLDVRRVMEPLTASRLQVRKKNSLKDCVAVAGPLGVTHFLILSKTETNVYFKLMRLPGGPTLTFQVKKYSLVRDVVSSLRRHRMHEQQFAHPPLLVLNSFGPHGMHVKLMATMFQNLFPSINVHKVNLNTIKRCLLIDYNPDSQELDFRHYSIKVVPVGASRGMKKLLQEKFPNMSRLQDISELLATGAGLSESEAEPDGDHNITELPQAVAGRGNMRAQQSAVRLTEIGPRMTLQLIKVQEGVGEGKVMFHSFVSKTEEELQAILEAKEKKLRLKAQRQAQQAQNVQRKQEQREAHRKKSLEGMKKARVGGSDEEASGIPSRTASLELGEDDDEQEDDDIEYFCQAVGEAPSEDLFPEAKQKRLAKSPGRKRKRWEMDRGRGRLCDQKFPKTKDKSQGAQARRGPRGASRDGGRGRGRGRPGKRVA
UniProt Q14517: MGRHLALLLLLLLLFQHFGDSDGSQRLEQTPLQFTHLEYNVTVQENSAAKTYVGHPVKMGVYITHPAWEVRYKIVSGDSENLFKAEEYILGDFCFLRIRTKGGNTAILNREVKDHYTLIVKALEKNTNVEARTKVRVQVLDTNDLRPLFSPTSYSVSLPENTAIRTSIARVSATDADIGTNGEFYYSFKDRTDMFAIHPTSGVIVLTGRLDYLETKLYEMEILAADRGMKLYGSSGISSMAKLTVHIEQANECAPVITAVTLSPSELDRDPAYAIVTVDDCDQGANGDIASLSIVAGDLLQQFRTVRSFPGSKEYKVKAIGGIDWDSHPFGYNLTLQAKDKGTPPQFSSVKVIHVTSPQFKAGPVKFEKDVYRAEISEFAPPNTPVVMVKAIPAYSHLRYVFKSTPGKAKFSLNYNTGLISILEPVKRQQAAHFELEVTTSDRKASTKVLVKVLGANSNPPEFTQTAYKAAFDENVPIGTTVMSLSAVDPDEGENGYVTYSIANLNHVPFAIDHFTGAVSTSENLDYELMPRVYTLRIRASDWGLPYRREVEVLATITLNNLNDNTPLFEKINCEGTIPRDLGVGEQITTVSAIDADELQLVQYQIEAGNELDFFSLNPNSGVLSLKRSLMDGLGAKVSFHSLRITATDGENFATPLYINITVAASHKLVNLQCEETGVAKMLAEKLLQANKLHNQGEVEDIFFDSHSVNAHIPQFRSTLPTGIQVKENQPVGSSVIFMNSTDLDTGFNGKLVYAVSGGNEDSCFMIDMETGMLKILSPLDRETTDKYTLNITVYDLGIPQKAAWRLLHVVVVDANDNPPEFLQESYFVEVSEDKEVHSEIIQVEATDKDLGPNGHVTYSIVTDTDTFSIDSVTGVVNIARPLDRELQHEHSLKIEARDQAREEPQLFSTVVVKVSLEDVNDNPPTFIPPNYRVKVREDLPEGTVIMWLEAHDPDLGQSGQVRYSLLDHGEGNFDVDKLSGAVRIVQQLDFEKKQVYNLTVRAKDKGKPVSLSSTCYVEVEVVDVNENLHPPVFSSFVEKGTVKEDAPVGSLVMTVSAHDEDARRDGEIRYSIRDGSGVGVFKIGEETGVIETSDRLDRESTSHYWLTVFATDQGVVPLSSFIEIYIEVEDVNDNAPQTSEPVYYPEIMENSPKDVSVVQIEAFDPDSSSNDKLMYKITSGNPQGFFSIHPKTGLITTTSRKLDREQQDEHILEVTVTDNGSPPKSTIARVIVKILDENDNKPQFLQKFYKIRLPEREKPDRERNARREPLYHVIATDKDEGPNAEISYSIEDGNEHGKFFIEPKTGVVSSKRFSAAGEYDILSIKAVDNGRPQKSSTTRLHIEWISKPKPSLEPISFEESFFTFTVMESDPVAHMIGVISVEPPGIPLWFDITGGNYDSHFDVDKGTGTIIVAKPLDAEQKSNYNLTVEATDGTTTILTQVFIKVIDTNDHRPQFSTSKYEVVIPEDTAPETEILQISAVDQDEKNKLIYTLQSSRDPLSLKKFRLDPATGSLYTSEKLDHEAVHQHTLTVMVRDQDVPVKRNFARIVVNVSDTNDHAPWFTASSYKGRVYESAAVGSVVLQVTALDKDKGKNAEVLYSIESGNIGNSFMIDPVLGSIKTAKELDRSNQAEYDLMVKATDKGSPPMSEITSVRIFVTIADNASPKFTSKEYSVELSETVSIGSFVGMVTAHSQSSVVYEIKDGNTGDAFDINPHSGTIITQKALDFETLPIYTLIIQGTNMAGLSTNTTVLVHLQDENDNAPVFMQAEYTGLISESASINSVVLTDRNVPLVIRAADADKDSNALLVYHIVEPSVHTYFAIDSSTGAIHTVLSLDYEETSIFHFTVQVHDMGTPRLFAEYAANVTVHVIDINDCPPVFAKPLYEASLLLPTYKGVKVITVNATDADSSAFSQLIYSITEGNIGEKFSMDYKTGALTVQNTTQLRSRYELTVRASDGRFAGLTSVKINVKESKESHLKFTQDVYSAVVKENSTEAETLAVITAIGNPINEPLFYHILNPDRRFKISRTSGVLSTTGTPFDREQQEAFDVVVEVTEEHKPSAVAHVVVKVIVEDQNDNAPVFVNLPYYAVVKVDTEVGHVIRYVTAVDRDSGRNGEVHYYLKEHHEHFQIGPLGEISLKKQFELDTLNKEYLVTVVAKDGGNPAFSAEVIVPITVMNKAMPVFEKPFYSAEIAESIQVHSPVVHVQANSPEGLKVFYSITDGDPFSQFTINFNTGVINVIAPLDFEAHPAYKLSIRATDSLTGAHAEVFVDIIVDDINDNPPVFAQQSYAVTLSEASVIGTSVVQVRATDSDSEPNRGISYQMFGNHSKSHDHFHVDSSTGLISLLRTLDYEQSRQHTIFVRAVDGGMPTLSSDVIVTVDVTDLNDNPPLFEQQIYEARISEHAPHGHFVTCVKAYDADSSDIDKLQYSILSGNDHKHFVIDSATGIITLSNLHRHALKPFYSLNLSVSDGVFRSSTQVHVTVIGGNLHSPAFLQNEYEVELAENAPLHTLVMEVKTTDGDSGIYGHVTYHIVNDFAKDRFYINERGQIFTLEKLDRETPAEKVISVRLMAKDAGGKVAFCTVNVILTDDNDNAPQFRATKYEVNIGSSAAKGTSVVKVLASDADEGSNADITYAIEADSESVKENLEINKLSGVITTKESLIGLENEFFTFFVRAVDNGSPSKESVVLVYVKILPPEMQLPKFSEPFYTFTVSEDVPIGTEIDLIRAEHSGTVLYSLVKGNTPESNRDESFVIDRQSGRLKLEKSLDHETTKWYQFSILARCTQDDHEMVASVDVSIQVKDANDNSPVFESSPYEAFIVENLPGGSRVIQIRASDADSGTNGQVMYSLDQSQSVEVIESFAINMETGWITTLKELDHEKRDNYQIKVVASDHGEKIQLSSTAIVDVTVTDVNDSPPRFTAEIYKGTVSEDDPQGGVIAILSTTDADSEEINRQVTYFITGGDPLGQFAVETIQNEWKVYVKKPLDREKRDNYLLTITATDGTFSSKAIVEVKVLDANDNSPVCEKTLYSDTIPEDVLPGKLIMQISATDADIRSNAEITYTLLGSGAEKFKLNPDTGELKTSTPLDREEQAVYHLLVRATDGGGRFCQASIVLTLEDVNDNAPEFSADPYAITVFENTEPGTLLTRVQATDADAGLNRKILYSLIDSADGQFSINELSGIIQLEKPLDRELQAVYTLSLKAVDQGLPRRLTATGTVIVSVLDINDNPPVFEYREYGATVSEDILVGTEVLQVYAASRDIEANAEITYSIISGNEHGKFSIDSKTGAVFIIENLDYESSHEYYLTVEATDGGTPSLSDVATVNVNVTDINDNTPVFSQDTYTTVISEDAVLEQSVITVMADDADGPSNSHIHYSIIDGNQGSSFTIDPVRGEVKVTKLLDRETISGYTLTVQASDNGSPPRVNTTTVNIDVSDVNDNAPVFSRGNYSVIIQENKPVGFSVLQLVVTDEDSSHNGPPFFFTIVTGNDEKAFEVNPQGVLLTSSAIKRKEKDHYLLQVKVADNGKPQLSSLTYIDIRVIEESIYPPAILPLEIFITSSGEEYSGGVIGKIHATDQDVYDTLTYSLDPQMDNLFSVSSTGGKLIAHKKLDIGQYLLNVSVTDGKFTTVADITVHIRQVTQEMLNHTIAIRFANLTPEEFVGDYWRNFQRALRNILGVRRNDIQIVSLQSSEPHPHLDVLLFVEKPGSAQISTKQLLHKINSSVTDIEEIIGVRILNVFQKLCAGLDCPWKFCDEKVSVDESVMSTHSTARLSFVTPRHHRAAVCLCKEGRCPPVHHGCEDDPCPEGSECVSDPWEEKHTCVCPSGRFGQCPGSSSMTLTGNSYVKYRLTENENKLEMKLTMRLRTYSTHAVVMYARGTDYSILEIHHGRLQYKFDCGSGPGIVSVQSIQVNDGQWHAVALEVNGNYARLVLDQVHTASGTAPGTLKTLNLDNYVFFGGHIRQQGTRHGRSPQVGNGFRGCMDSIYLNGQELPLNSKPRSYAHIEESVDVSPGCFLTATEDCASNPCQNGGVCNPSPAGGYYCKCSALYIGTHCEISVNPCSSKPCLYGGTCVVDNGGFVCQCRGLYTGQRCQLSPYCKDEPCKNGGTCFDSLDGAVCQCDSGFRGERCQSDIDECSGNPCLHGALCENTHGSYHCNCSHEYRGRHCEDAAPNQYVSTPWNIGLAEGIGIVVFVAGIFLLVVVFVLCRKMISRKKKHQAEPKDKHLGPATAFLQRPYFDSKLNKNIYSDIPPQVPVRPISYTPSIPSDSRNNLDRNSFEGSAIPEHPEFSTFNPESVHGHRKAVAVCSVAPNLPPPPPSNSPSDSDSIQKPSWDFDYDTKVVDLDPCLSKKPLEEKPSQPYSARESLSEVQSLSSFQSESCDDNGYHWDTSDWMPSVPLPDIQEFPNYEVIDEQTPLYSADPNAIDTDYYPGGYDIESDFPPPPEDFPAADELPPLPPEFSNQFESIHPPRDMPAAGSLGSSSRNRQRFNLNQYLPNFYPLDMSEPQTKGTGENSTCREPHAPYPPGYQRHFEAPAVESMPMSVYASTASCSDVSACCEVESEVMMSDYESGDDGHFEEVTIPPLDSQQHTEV
UniProt O60613, whole entry: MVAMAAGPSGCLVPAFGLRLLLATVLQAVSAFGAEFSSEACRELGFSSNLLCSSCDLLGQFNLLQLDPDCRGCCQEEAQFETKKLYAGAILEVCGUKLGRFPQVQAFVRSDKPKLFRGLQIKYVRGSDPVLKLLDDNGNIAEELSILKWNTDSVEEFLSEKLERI
UniProt Q99836, whole entry: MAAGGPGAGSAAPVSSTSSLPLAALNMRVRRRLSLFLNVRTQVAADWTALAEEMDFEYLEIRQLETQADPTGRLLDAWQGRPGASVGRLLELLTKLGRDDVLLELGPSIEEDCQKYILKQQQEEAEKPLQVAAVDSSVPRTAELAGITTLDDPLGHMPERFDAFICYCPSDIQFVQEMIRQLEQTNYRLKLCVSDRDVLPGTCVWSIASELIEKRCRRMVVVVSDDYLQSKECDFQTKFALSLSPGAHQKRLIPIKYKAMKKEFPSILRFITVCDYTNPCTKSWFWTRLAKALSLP

Compound: Nc1ncnc2c1ncn2[C@@H]1O[C@H](COP(=O)(O)OP(=O)(O)OP(=O)(O)O)[C@@H](O)[C@H]1O [adenosine triphosphate]
Assay: NP40-soluble protein abundance relative to vehicle (solubility fold change) (ratio); higher = more soluble protein in presence of ATP
Method in brief: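 Values are fold changes against the detergent-processed vehicle, based on vsn-normalised intensities. Jurkat crude lysate was treated at eight concentrations from 0.1 to 10 mM (10 min at room temperature, then 3 min at 37 °C), solubilised with 0.8% NP40 and benzonase, ultracentrifuged and analysed by TMT-labelled LC-MS/MS over three independent experiments.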

Target	NP40-soluble protein abundance (concentration: 1mM)	NP40-soluble protein abundance (concentration: 2mM)	NP40-soluble protein abundance (concentration: 4mM)	NP40-soluble protein abundance (concentration: 6mM)	NP40-soluble protein abundance (concentration: 8mM)	NP40-soluble protein abundance (concentration: 10mM)
A0A0C4DGA6|Q14527 (UniProt Q14527)	1.06 ± 0.011	1.05 ± 0.018	1.03 ± 0.003	1.07 ± 0.027	1.07 ± 0.019	1.06 ± 0.032
A0A088AWN8|Q9UHQ1 and related entries (UniProt Q9UHQ1)	0.91 ± 0.066	0.949 ± 0.11	0.932 ± 0.043	0.985 ± 0.082	0.996 ± 0.055	0.963 ± 0.13
A0A087WV66|P46013 and related entries (UniProt P46013)	0.999 ± 0.04	0.9935 ± 0.0056	0.986 ± 0.012	1.04 ± 0.021	0.97 ± 0.011	0.989 ± 0.018
A0A087X1L0|Q9NS73 and related entries (UniProt Q9NS73)	1.23 ± 0.2	1.09 ± 0.25	1.2 ± 0.15	1.09 ± 0.28	1.18 ± 0.23	1.21 ± 0.2
A0A087WXD1|Q96T83 (UniProt Q96T83)	0.967 ± 0.015	0.949 ± 0.044	0.953 ± 0.049	0.911 ± 0.1	0.939 ± 0.058	0.902 ± 0.16
A0A087WXN9|Q765P7 (UniProt Q765P7)	1 ± 0.051	1.02 ± 0.012	1.04 ± 0.05	1.02 ± 0.011	1.01 ± 0.036	0.974 ± 0.041
A0A087WUQ6|P07203 (UniProt P07203)	1.03 ± 0.073	1 ± 0.023	0.978 ± 0.026	0.975 ± 0.039	0.945 ± 0.077	0.99 ± 0.036
A0A0A0MRE5|Q9ULH1 and related entries (UniProt Q9ULH1)	0.952 ± 0.021	0.965 ± 0.026	0.936 ± 0.046	0.961 ± 0.012	0.939 ± 0.0032	0.971 ± 0.049
A0A087WY96|P31641 (UniProt P31641)	0.947 ± 0.055	0.979 ± 0.056	0.88 ± 0.038	0.903 ± 0.038	0.899 ± 0.035	0.914 ± 0.032
A0A0C4DGQ8|Q6IAN0 (UniProt Q6IAN0)	1.1 ± 0.18	1.04 ± 0.12	1.04 ± 0.055	0.977 ± 0.091	1.14 ± 0.12	1.08 ± 0.15
A0A0A0MRB5|Q8WXG6 and related entries (UniProt Q8WXG6)	0.966 ± 0.035	0.934 ± 0.037	0.973 ± 0.084	0.939 ± 0.1	0.941 ± 0.085	0.954 ± 0.089
A0A087WUT6|O60841 (UniProt O60841)	0.938 ± 0.029	0.928 ± 0.014	0.9 ± 0.02	0.966 ± 0.011	0.935 ± 0.013	0.943 ± 0.021
A0A0A6YYI3|A0A0B4J1V8|Q9NQ55 and related entries (UniProt Q9NQ55)	1.03 ± 0.032	1.04 ± 0.037	1.17 ± 0.066	1.28 ± 0.013	1.32 ± 0.069	1.43 ± 0.098
A0A0A0MRU0|A0A0C4DH75|A0A0D9SFF8|B4DZ84 and related entries (UniProt Q14168)	1.02 ± 0.037	1.03 ± 0.041	1.09 ± 0.054	1.01 ± 0.05	1.062 ± 0.0076	1.1 ± 0.13
A0A0A0MTH3|Q13418 (UniProt Q13418)	0.977 ± 0.047	0.956 ± 0.035	0.938 ± 0.042	0.92 ± 0.086	0.958 ± 0.045	0.951 ± 0.049
A0A087WU53|Q9H0U3 (UniProt Q9H0U3)	0.987 ± 0.075	0.967 ± 0.046	1 ± 0.1	0.945 ± 0.061	0.996 ± 0.056	0.979 ± 0.043
A0A087WVP1|Q14517 (UniProt Q14517)	1.02 ± 0.047	1.04 ± 0.072	1.1 ± 0.17	1.07 ± 0.17	1.07 ± 0.14	1.05 ± 0.098
A0A0C4DFM0|G3V4T6 and related entries (UniProt O43708)	0.886 ± 0.13	0.888 ± 0.076	0.851 ± 0.14	0.848 ± 0.038	0.87 ± 0.11	0.8667 ± 0.0047
A0A087WYL7|G3V4A5 and related entries (UniProt O75586)	0.981 ± 0.054	1 ± 0.027	0.982 ± 0.05	1.02 ± 0.096	1.04 ± 0.039	0.978 ± 0.076
A0A087WWK8|Q6DN90 (UniProt Q6DN90)	1.12 ± 0.08	1.09 ± 0.1	1.12 ± 0.035	1.12 ± 0.12	1.1 ± 0.11	1.16 ± 0.16
A0A087X1G7|A0A0B4J1S4|O60613 (UniProt O60613)	0.99 ± 0.066	0.995 ± 0.037	0.993 ± 0.12	0.972 ± 0.051	0.956 ± 0.053	0.948 ± 0.054
A0A0A0MS70|A0A0A0MST0|H0Y4G9 and related entries (UniProt Q99836)	0.972 ± 0.064	0.978 ± 0.044	0.943 ± 0.047	0.952 ± 0.08	0.958 ± 0.052	0.95 ± 0.067
A0A075B6T1|Q9C0C7 and related entries (UniProt Q9C0C7)	0.932 ± 0.059	0.913 ± 0.084	0.968 ± 0.06	0.935 ± 0.097	0.93 ± 0.099	0.945 ± 0.15
A0A087WSV8|V9HW75 (UniProt V9HW75)	1.06 ± 0.035	0.937 ± 0.045	1.02 ± 0.052	1.09 ± 0.032	1.064 ± 0.0065	0.91 ± 0.22
A0A087WYU1|Q9Y5X1 (UniProt Q9Y5X1)	0.96 ± 0.057	0.984 ± 0.033	0.995 ± 0.037	1.01 ± 0.049	1.01 ± 0.0068	1.02 ± 0.015

Target	NP40-soluble protein abundance (concentration: 1mM)	NP40-soluble protein abundance (concentration: 2mM)	NP40-soluble protein abundance (concentration: 4mM)	NP40-soluble protein abundance (concentration: 6mM)	NP40-soluble protein abundance (concentration: 8mM)	NP40-soluble protein abundance (concentration: 10mM)
A0A087WUS0|E7ETK0 and related entries (UniProt P62847)	0.825 ± 0.05	0.803 ± 0.1	0.757 ± 0.14	0.746 ± 0.13	0.637 ± 0.17	0.734 ± 0.1
A0A0C4DH16|B8ZZS0 and related entries (UniProt Q9NYM9)	0.992 ± 0.054	0.967 ± 0.046	1.01 ± 0.028	0.963 ± 0.078	0.953 ± 0.06	0.816 ± 0.17
A0A0B4J2E8|Q96D31 and related entries (UniProt Q96D31)	0.994 ± 0.092	0.956 ± 0.097	1.07 ± 0.095	0.999 ± 0.066	1.05 ± 0.094	1 ± 0.12
A0A0A0MSF9|Q8N954 (UniProt Q8N954)	0.952 ± 0.081	0.944 ± 0.078	0.975 ± 0.077	1.05 ± 0.11	1.09 ± 0.049	1.14 ± 0.044
A0A087X279|P09913 (UniProt P09913)	1.02 ± 0.022	0.967 ± 0.075	1.08 ± 0.11	1.05 ± 0.047	0.963 ± 0.035	0.976 ± 0.058
A0A0B4J2F8|A6NFM0 and related entries (UniProt Q9GZM3+Q9H1A7+P52435+F6S314+E2QRJ6+A6NFM0)	0.9602 ± 0.0028	0.992 ± 0.047	1.03 ± 0.073	1.02 ± 0.045	0.94 ± 0.053	0.941 ± 0.075
A0A0A0MT83|P26440 (UniProt P26440)	1.05 ± 0.11	1.01 ± 0.069	1.01 ± 0.092	0.96 ± 0.11	1.01 ± 0.079	0.999 ± 0.077
A0A087WUL0|Q3LXA3 (UniProt Q3LXA3)	0.939 ± 0.029	0.971 ± 0.046	0.955 ± 0.017	0.933 ± 0.054	0.906 ± 0.025	0.934 ± 0.023
A0A087X0R0|F5H6S1 and related entries (UniProt O15550)	1.04 ± 0.086	0.998 ± 0.07	1.03 ± 0.074	1.03 ± 0.054	1.05 ± 0.052	1.05 ± 0.013
A0A0A0MRR5|Q96BW1 and related entries (UniProt Q96BW1)	0.928 ± 0.021	0.98 ± 0.035	0.96 ± 0.018	0.9782 ± 0.0081	0.89 ± 0.099	0.9 ± 0.06
A0A0A0MTN0|Q13617 and related entries (UniProt Q13617)	1.02 ± 0.13	0.985 ± 0.089	0.965 ± 0.085	0.918 ± 0.12	0.99 ± 0.057	0.952 ± 0.041
A0A0D9SG07|Q9H4G0-4 (UniProt Q9H4G0)	0.961 ± 0.037	0.944 ± 0.042	0.9573 ± 0.0047	1 ± 0.053	0.938 ± 0.05	0.912 ± 0.04
A0A096LP07|A0A096LPJ3|A8K070 and related entries (UniProt Q13098)	0.92 ± 0.015	0.935 ± 0.023	0.902 ± 0.053	0.884 ± 0.024	0.938 ± 0.067	0.931 ± 0.017
A0A0A0MQS0|A8MW92 and related entries (UniProt A8MW92)	1.06 ± 0.074	1.09 ± 0.063	1.15 ± 0.04	1.27 ± 0.11	1.19 ± 0.071	1.24 ± 0.082
A0A0A0MSE9|B7WPA5 and related entries (UniProt Q96CS7)	1.15 ± 0.087	1.02 ± 0.045	1.06 ± 0.093	0.961 ± 0.11	1.08 ± 0.073	1.12 ± 0.18
A0A087X011|E9PES4 and related entries (UniProt Q9Y496)	1 ± 0.038	1.01 ± 0.035	1.011 ± 0.0088	0.981 ± 0.03	0.99 ± 0.038	0.991 ± 0.026
A0A0A0MSY7|E5KNQ5 and related entries (UniProt O00142)	1.1 ± 0.098	1.02 ± 0.062	1.01 ± 0.11	0.894 ± 0.094	1.06 ± 0.12	0.969 ± 0.099
A0A0D9SG71|P49459 (UniProt P49459)	1.07 ± 0.04	1.03 ± 0.074	1.04 ± 0.084	1.01 ± 0.048	1.04 ± 0.067	1.04 ± 0.07
A0A0A0MRP2|O14772 and related entries (UniProt O14772)	1.13 ± 0.22	1.12 ± 0.14	0.967 ± 0.13	0.999 ± 0.27	0.956 ± 0.059	1.02 ± 0.11
A0A0A0MRY0|Q8WUA7 and related entries (UniProt Q8WUA7)	1.07 ± 0.1	1.03 ± 0.071	1.12 ± 0.11	1.06 ± 0.06	1.04 ± 0.11	1.01 ± 0.089
A0A0C4DGB1|Q9UNQ2 (UniProt Q9UNQ2)	1.17 ± 0.1	1.11 ± 0.048	1.19 ± 0.055	1.16 ± 0.059	1.34 ± 0.033	1.368 ± 0.0024
A0A087X0M0|Q7Z5L2 and related entries (UniProt Q7Z5L2)	1.02 ± 0.036	0.938 ± 0.02	0.961 ± 0.033	0.93 ± 0.052	0.892 ± 0.047	0.903 ± 0.087
A0A087WU31|A0A0A0MTB7|P51790 and related entries (UniProt P51790)	0.967 ± 0.054	1.01 ± 0.027	0.942 ± 0.032	0.947 ± 0.029	0.905 ± 0.025	0.946 ± 0.044
A0A0A0MSJ9|Q15283 and related entries (UniProt Q15283)	1.04 ± 0.083	1.02 ± 0.079	1.01 ± 0.084	0.993 ± 0.098	1.02 ± 0.068	1.01 ± 0.075
A0A0A0MSE2|E9PF18 and related entries (UniProt Q16836)	0.967 ± 0.068	0.9477 ± 0.0081	0.919 ± 0.029	0.973 ± 0.039	0.949 ± 0.017	0.908 ± 0.031

Looked up above.
Value for A0A087WUS0|E7ETK0 and related entries (UniProt P62847) under NP40-soluble protein abundance (concentration: 6mM): 0.746 ± 0.13
Value for A0A0A6YYI3|A0A0B4J1V8|Q9NQ55 and related entries (UniProt Q9NQ55) under NP40-soluble protein abundance (concentration: 2mM): 1.04 ± 0.037
Value for A0A096LP07|A0A096LPJ3|A8K070 and related entries (UniProt Q13098) under NP40-soluble protein abundance (concentration: 8mM): 0.938 ± 0.067
